From patent publication US20030049255A1 (published 2003)
No constants are given. Whether binding was seen depends on the method and setting. Some entries that bind do so weakly or less than the wild type. Sequences can lack the tags named with a protein.

By UniProt entry, the sequences of proteins in these tests, tags left out. Residues count along the entry.
UniProt P18510, residues 26-177: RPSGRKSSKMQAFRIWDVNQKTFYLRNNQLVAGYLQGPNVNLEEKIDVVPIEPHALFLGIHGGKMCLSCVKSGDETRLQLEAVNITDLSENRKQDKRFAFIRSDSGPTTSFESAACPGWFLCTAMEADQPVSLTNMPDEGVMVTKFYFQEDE
UniProt Q866R8, residues 26-177: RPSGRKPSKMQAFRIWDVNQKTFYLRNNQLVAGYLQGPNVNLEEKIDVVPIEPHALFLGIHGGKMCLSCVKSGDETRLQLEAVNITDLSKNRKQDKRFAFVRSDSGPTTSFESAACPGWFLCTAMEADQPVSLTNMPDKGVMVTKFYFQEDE

Legend:
[1] = target: human IL-1 receptor antagonist (IL-1ra) (human) (UniProt P18510); assay: SPR, BIACORE 3000, receptor:Fc captured on anti-human IgG Fc, ligand in flow
[2] = target: cynomolgus IL-1ra (cynomolgus macaque) (UniProt Q866R8); assay: SPR, BIACORE 3000, receptor:Fc captured, ligand in flow

B1: recombinant human type II IL-1R:Fc (Fc fusion)
chain: FTLQPAAHTGAARSCRFRGRHYKREFRLEGEPVALRCPQVPYWLWASVSPRINLTWHKNDSARTVPGEEETRMWAQDGALWLLPALQEDSGTYVCTTRNASYCDKMSIELRVFENTDAFLPFISYPQILTLSTSGVLVCPDLSEFTRDKTDVKIQWYKDSLLLDKDNEKFLSVRGTTHLLVHDVALEDAGYYRCVLTFAHEGQQYNITRSIELRIKKKKEETIPVIISPLKTISASLGSRLTIPCKVFLGTGTPLTTMLWWTANDTHIESAYPGGRVTEGPRQEYSENNENYIEVPLIFDPVTREDLHMDFKCVVHNTLSFQTLRTTVKE
notes: also called human IL-1RII:Fc; soluble recombinant human type II IL 1R:Fc; not shown: Fc portion of human IgG
binding [1]: binds
binding [2]: binds
